Consider 5 molecules from patent publication US20230057263A1.

The chains behind the UniProt entries cited, without tags or fusion partners. Where a name states a change or a piece, a line headed by the entry shows the natural chain unless it says otherwise.
UniProt P07766: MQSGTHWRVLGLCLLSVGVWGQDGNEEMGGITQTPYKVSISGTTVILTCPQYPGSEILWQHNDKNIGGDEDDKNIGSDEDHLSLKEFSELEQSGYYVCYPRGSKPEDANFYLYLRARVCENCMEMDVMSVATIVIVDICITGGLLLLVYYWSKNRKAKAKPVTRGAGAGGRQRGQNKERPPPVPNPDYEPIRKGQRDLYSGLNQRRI

Experiment [1] concerns the target human CD3 epsilon (CD3ε) (human) (UniProt P07766). As to the kind of experiment: flow cytometry on human donor T cells.
For experiment [2] the target is unchanged. As to the kind of experiment: flow cytometry on human T cells. (A flow cytometer gives signals particle by particle.)
For experiment [3], the target named is AGS73.15 (MS497). The experiment is described as follows: flow cytometry; inhibition of AGS73.15 binding to human T cells by titrated anti-ID.
The target in experiment [4] is AGS73.15 (MS497). The experiment is described as follows: flow cytometry, blocking of AGS73.15 (200 ng/ml) binding to CD3ε on human T cells; AGS73.15 detected with anti-human IgG Fc-PE.

These are yes or no findings as the source states them, for the method shown. Some binding calls cover weakened binding; strength is not graded here.

B1: 6d58 (antibody, V domains shown)
VH: QVHLVESGGGVVQPGRSLRLSCAASGFKFRSYGMHWVRQAPGKGLEWVAIIWYDGSKRYYADSVKGRFTISRDNSKNTLYLQMSSLRAEDTAVYYCARDLITGTTDYWGQGTLVTVSS
VL: DVVMTQSPLSLPVTLGQPASISCRSSRSLVYSDGNTHLIWFQQRPGQSPRRLIYRVSNRVSGVPDRFSGSGSGTDFTLKISRVEAEDVGVYYCLQGAHWPYTFGQGTKLEIKR
For B1, the binding entry in experiment [1] and in experiment [2] was “binds” throughout.

B2: 6d59 (antibody, V domains shown)
VH: QVHLVESGGGVVQPGRSLRLSCAASGFKFRSYGMHWVRQAPGKGLEWVAIIWYDGSKRYYADSVKGRFTISRDNSKNTLYLQMSSLRAEDTAVYYCARDLITGTTDYWGQGTLVTVSS
VL: DVVMTQSPLSLPVTLGQPASISCRSSRSLVYSDGNTHLIWFQQRPGQSPRRLIYRVSNRVSGVPDRFSGSGSGTDFTLKISRVEAEDVGVYYCLQGAHWPYTFGQGTKLEIKR
As to B2, the binding result in experiment [1] and in experiment [2] was “binds” throughout.

B3: 6d59.id.1b54.1 (antibody, V domains shown)
VH: DVQLQESGPGLVKPSQSLSLTCSVTGYSITSSYYWNWIRQFPGNKLEWMGSIMYDGNNNYNPSLKNRISITRDTSKNQFFLKLNSVTTEDTATYYCARNMADYFGNTYDALDYWGQGTSVTVSS
VL: DILLTQSPGSLAVSLGQRATISCKASQSADYGGDSYMSWYQQKPGQPPKLLIYAASNLESGTPARFSGSGSGTDFTLNIHPVEEEDAATYYCQQGNEDPWTFGGGTKLEIKR
For the molecule B3, the binding entry in the experiment with AGS73.15 (MS497) [3] and with AGS73.15 (MS497) [4] was “binds” throughout.

B4: 6d59.id.1b61.1 (antibody, V domains shown)
VH: DVQLQESGPGLVKPSQSLSLTCSVTGYSITSSYYWNWIRQFPGNKLEWMGYIMYDGNNNYNPSLKNRISITRDTSKNQFFLKLNSVTTEDTATYYCARNMADYFGNTYDALDYWGQGTSVTVSS
VL: DILLTQSPGSLAVSLGQRATISCKASQSADYGGDSYMSWYQQKPGQPPKLLIYAASNLESGTPARFSGSGSGTDFTLNIHPVEEEDAATYYCQQGNEDPWTFGGGTKLEIKR
As to B4, the binding result with AGS73.15 (MS497) [3] and in the experiment with AGS73.15 (MS497) [4] was “binds” each time.

B5: 6d59.id.1b67.1 (antibody, V domains shown)
VH: QVTLKESGPGILKPSQTLSLTCSFSGFSLSTSGMGVGWIRQPSGKGLEWLAHIWWDDDKFYKPSLKNRLTISKDTSRNQVFLKITSVDTADAATYFCVRRSAYEAFTLDYWGQGTSVTVSS
VL: DIMLTQSPASLAVSLGQRATISCKASQSVDYDGNGYLNWYQQKPGQPPKLLIYAASNLESGIPARFSGSGSGTDFTLNIHPVEEEDVATYYCQQSSEDPFTFGSGTKLEIKR
With B5, the binding entry with AGS73.15 (MS497) [3] and with AGS73.15 (MS497) [4] was “binds” throughout.
